The chains behind the UniProt entries cited, without tags or fusion partners. Where a name states a change or a piece, a line headed by the entry shows the natural chain unless it says otherwise. Residues count along the entry.
UniProt Q9NPG3, 26-46: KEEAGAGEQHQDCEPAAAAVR
UniProt Q9NXH9: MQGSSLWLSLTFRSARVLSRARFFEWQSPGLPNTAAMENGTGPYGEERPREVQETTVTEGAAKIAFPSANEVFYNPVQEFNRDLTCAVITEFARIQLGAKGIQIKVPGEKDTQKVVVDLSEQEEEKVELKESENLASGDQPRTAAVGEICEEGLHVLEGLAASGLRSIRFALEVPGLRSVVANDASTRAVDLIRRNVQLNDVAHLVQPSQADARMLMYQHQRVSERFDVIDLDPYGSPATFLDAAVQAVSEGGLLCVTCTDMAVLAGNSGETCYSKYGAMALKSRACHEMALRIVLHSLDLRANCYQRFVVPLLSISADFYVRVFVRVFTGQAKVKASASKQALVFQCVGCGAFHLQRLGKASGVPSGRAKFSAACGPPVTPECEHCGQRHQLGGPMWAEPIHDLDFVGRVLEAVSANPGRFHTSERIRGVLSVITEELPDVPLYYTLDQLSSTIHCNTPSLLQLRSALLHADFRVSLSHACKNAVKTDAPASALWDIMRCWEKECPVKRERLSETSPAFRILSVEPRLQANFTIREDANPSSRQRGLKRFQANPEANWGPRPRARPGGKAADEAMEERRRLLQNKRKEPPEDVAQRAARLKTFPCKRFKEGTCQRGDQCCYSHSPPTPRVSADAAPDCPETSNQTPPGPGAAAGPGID
UniProt Q9NX07: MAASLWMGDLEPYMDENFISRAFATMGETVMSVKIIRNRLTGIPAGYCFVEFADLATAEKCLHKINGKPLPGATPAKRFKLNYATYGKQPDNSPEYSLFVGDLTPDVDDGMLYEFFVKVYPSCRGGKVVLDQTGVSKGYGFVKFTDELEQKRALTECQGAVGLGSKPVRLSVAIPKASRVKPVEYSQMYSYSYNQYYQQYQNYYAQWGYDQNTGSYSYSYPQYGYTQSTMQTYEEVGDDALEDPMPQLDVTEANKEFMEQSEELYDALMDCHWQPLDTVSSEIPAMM
UniProt Q9Y4A5, whole entry, looked up: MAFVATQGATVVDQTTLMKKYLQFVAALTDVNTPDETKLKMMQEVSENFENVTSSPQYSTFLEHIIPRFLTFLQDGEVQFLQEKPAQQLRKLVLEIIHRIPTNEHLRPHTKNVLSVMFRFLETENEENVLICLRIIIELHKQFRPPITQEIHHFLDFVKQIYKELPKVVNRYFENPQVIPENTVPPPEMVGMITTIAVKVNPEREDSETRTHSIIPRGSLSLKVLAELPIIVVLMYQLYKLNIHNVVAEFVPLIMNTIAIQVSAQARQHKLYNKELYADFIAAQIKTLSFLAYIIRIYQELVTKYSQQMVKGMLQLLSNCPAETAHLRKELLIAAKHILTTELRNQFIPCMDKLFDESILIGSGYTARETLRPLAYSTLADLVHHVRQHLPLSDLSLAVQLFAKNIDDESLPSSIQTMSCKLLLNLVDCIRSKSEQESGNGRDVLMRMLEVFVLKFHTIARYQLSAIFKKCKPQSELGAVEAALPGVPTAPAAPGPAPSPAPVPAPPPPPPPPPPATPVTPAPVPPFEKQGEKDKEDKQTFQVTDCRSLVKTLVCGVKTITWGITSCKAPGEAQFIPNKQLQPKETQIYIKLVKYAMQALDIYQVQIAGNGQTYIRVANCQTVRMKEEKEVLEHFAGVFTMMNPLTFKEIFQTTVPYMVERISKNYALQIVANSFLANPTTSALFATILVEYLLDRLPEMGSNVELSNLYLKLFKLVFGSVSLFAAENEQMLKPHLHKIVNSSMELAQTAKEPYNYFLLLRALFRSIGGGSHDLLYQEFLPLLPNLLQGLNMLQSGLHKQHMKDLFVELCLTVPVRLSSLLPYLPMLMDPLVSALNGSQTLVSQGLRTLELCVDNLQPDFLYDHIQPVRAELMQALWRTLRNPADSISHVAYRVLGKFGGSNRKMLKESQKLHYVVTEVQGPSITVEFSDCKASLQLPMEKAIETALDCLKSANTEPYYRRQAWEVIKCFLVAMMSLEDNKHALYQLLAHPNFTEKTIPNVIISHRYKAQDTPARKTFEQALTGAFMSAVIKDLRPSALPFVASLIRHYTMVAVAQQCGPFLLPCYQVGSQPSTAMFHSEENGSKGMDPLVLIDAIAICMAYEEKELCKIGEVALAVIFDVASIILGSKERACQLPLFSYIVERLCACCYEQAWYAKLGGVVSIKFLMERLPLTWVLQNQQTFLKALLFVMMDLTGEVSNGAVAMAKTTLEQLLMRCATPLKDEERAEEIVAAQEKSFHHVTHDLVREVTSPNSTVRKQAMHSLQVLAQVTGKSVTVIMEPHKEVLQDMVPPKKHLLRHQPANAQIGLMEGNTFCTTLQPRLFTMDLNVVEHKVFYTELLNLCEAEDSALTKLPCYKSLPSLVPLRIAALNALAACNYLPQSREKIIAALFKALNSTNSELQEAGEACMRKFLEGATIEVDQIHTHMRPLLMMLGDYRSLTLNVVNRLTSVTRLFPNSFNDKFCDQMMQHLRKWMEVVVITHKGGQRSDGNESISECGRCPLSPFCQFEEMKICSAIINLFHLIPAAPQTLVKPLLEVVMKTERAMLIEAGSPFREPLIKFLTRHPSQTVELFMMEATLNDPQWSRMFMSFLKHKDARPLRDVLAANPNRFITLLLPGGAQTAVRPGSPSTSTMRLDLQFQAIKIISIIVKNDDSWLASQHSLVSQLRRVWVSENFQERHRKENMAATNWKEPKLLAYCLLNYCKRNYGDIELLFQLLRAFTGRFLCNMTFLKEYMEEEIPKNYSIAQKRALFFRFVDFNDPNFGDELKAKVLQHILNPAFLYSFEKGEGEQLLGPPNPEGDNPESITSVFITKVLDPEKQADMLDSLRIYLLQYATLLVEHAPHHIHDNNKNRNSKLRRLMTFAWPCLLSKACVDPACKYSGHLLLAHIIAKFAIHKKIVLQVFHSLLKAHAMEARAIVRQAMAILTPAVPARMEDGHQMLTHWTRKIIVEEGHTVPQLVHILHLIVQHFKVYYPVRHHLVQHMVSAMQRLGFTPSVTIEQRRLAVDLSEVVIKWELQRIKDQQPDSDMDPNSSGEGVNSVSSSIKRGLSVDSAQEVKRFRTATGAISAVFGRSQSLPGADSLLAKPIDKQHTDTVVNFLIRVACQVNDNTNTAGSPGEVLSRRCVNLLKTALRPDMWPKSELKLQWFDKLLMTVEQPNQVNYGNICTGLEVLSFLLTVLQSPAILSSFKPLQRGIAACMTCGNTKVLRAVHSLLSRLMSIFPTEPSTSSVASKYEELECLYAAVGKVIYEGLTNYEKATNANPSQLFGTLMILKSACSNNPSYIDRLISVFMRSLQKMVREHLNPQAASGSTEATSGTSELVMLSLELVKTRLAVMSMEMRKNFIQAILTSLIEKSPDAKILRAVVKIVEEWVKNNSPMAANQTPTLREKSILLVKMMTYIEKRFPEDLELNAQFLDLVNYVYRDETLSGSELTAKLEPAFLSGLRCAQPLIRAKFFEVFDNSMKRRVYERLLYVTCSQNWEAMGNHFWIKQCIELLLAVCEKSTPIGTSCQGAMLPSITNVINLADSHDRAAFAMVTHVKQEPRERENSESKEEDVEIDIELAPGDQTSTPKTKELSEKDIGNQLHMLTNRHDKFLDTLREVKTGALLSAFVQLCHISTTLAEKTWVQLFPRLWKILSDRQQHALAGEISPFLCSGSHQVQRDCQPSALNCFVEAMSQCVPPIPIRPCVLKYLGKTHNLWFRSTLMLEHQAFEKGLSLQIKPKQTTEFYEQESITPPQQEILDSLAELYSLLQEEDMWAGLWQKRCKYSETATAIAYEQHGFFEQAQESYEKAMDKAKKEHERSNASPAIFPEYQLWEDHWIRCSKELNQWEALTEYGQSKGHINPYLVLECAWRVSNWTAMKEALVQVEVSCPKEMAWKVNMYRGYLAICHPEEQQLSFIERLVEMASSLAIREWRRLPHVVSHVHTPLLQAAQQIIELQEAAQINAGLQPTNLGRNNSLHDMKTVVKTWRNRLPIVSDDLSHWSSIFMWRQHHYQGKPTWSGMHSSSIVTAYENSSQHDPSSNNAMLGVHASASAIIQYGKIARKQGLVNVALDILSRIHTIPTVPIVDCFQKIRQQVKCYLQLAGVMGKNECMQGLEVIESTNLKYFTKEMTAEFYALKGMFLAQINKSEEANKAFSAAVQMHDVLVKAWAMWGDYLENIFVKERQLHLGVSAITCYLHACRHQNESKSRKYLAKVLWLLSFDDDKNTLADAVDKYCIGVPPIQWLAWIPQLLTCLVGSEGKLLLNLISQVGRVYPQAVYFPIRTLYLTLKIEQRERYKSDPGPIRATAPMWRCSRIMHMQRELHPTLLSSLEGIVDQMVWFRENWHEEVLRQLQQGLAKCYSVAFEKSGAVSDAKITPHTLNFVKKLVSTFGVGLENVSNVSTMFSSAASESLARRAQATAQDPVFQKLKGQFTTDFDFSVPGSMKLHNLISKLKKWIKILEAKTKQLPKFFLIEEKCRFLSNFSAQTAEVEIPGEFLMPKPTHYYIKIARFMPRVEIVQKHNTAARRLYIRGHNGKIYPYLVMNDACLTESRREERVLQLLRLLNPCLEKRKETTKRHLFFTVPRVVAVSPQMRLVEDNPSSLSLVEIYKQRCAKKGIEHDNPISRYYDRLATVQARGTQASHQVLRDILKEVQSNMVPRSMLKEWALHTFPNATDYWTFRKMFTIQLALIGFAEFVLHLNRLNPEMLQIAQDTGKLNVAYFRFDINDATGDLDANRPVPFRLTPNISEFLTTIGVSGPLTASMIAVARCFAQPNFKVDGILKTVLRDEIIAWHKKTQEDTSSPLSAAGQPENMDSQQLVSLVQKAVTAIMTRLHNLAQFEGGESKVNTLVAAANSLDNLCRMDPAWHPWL
UniProt Q9UJA5: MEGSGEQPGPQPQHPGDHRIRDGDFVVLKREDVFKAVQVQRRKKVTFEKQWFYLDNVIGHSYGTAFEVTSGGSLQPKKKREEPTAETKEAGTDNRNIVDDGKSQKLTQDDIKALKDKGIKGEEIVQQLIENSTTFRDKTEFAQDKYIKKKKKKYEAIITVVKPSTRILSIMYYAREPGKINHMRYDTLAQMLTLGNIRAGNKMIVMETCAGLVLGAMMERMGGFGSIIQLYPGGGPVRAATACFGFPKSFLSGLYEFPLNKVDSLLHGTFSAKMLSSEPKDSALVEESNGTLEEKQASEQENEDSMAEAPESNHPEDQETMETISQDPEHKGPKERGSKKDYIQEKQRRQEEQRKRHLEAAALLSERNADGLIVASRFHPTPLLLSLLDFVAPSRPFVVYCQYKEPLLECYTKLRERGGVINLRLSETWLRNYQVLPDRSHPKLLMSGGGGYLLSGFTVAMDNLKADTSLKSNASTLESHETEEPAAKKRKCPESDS
UniProt Q9UNY4, 549-575: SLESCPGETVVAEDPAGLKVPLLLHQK
UniProt O15042: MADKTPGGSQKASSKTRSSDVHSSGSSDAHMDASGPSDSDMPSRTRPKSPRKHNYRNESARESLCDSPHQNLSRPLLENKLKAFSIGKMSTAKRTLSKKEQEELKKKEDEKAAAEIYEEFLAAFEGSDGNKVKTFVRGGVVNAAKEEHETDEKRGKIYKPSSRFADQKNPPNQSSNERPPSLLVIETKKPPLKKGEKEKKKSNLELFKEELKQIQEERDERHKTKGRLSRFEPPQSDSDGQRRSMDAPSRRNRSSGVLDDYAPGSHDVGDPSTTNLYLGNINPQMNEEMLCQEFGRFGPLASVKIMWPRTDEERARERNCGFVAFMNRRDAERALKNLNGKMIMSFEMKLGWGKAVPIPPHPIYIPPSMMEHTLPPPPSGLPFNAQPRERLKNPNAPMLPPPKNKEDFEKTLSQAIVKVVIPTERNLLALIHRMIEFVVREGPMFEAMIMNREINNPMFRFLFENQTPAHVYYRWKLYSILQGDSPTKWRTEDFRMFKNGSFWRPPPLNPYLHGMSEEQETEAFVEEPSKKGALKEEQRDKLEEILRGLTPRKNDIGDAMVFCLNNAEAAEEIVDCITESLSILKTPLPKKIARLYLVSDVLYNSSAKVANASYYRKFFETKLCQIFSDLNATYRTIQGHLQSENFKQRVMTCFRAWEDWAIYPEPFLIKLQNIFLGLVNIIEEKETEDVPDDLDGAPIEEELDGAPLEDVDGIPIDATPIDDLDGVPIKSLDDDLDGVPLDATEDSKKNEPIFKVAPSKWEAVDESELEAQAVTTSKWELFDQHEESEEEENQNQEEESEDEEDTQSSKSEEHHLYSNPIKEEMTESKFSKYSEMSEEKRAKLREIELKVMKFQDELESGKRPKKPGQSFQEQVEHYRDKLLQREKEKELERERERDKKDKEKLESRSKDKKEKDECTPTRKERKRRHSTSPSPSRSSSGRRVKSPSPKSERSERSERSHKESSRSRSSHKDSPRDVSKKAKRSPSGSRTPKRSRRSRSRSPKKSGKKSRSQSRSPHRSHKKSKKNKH

The list shows a part of the results. The data scatter; read single values as rough.
The targets below were run with ClCC(=O)N[C@H]1CCCc2ccccc12 (assay: log2 mean competition ratio of IA-DTB cysteine labelling (DMSO/compound) (log2 ratio); higher = stronger cysteine engagement by compound). Settings: 200 µM; treatment time: 4 h; cell line lysate: HEK293T.
Experimental: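 IA-DTB competitive cysteine chemoproteomics in HEK293T RIPA lysate. Lysates were treated with compound 29 or 30 at 50 or 200 µM for 4 h, then IA-DTB (500 µM, 1 h), trypsin-digested, NeutrAvidin-enriched and analysed by diaPASEF. Competition ratio = intensity DMSO / intensity compound (n=4 treated, n=64 DMSO); binding: mean log2 CR ≥ 1 and p ≤ 0.05 plus QC filters. Target is the cysteine site.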
For UBN1 C38 (UniProt Q9NPG3), the “log2 mean competition ratio” value was -0.359.
With TRMT1 C614 (UniProt Q9NXH9) the “log2 mean competition ratio” value was 0.12.
TUT7 C911 (UniProt Q5VYS8) was tested, and the “log2 mean competition ratio” value was -0.35.
With TTC39C C87 (UniProt Q8N584) the “log2 mean competition ratio” value was -0.307.
In the case of TRNAU1AP C157 (UniProt Q9NX07), the “log2 mean competition ratio” value is reported as -0.227.
UBE2M C65 was tested, and the “log2 mean competition ratio” value was -0.302.
With UBE3C C395 (UniProt Q15386) the “log2 mean competition ratio” value was -0.0597.
U2AF2 C464 was tested, and the “log2 mean competition ratio” value was -0.208.
In the case of UBN2 C614 (UniProt Q6ZU65), the “log2 mean competition ratio” value is reported as 0.0356.
In the case of UBA2 C30, the “log2 mean competition ratio” value is reported as 0.163.
In the case of TRRAP C546 (UniProt Q9Y4A5), the “log2 mean competition ratio” value is reported as -0.0414.
For TTK C295 (UniProt P33981), the “log2 mean competition ratio” value was 0.108.
For TRRAP C350 (UniProt Q9Y4A5), the “log2 mean competition ratio” value was -0.187.
In the case of UBR2 C1360 (UniProt Q8IWV8), the “log2 mean competition ratio” value is reported as -0.124.
For TUT4 C746 (UniProt Q5TAX3), the “log2 mean competition ratio” value was -0.137.
With TUT7 C1413 (UniProt Q5VYS8) the “log2 mean competition ratio” value was -0.101.
UBA1 C179 (UniProt P22314) was tested, and the “log2 mean competition ratio” value was -0.0935.
In the case of TTC37 C329 (UniProt Q6PGP7), the “log2 mean competition ratio” value is reported as 0.0338.
TXNIP C49 (UniProt Q9H3M7) was tested, and the “log2 mean competition ratio” value was -0.0179.
UACA C453 (UniProt Q9BZF9) was tested, and the “log2 mean competition ratio” value was 0.0192.
TRMT2A C191 (UniProt Q8IZ69) was tested, and the “log2 mean competition ratio” value was 0.23.
With TRRAP C3758 (UniProt Q9Y4A5) the “log2 mean competition ratio” value was -0.275.
In the case of TRMT6 C492 (UniProt Q9UJA5), the “log2 mean competition ratio” value is reported as 0.251.
For TTF2 C553 (UniProt Q9UNY4), the “log2 mean competition ratio” value was -0.195.
With TXNDC11 C815 (UniProt Q6PKC3) the “log2 mean competition ratio” value was -0.0234.
With UBFD1 C185 (UniProt O14562) the “log2 mean competition ratio” value was 0.0594.
U2SURP C65 (UniProt O15042) was tested, and the “log2 mean competition ratio” value was -0.00553.
With UBE3B C75 (UniProt Q7Z3V4) the “log2 mean competition ratio” value was 0.15.

Reference: the supplement of paper PMC11732987, “Enantioselective OTUD7B fragment discovery through chemoproteomics screening and high-throughput optimisation” (Communications Chemistry, 2025)
